Reference: the supplement of paper PMC8256030
“And” between values parts separate entries of the source, which are not always exact repeats. Equal values may be shown once. The list shows a part of the results. This data set is noisy: repeats of one test often differ as much as different tests do.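 HEK293T cells were given each compound shortly before transfection with a reporter in which red mCherry is followed by the SARS-CoV-2 frameshift element and then GFP in the −1 frame, so GFP appears only after frameshifting.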

These compounds were tested on SARS-CoV-2 -1 PRF reporter mCherry-FSE-GFP(-1) (assay: mCherry (red) intensity as percent of control; higher = higher upstream reporter expression). Conditions: 10 µM; 24 h; HEK293T.
For `CCCCCNC(=O)c1coc([C@H]2[C@@H](Cc3ccccc3CCC(=O)O)[C@@H]3CC[C@H]2O3)n1` [ifetroban], the mCherry was 83.1%. In the case of `NCC[C@H](O)C(=O)N[C@@H]1C[C@H](N)[C@@H](O[C@H]2O[C@H](CN)CC[C@H]2N)[C@H](O)[C@H]1O[C@H]1O[C@H](CO)[C@@H](O)[C@H](N)[C@H]1O` [arbekacin], the mCherry is reported as 107%. Compound `Cc1ncc2c(c1O)COC2c1ccc(Cl)cc1` (stereo not given) [cicletanine] has a mCherry of 129%. In the case of `CCN(CC)CCOc1ccc2c(c1)C(=O)c1cc(OCCN(CC)CC)ccc1-2` [tilorone], the mCherry is reported as 86.1%. `COc1ccc(-c2nc(C(F)(F)F)sc2-c2ccc(OC)cc2)cc1` [itazigrel] showed a mCherry of 84.8%. In the case of `Oc1ccccc1-c1nnco1` [fenadiazole], the mCherry is reported as 88.9%. For `C[C@H](N[C@@H](CCc1ccccc1)C(=O)O)C(=O)N1CCC[C@H]1C(=O)O` [enalaprilat], the mCherry was 119% and 101%. For `CO[C@H]1/C=C/O[C@@]2(C)Oc3c(C)c(O)c4c(O)c(c(/C=N/N5CCN(C)CC5)c(O)c4c3C2=O)NC(=O)/C(C)=C\C=C\[C@H](C)[C@H](O)[C@@H](C)[C@@H](O)[C@@H](C)[C@H](OC(C)=O)[C@@H]1C`, the mCherry was 90.9%. `NC(=O)C1=CN([C@@H]2O[C@H](COP(=O)(O)OP(=O)(O)OC[C@H]3O[C@@H](n4cnc5c(N)ncnc54)[C@H](O)[C@@H]3O)[C@@H](O)[C@H]2O)C=CC1` gave a mCherry of 113%. `CC[C@H](C)[C@@H]([C@@H](CC(=O)N1CCC[C@H]1[C@H](OC)[C@@H](C)C(=O)NCCc1ccccc1)OC)N(C)C(=O)[C@@H](NC(=O)[C@H](C(C)C)N(C)C)C(C)C` [soblidotin] was tested, and the mCherry was 83.7%. `CCCC(=O)OCOC(=O)C1=C(C)NC(C)=C(C(=O)OC)C1c1cccc(Cl)c1Cl` (stereo not given) [Clevidipine] was tested, and the mCherry was 91.2%. For `C[C@@H]1C/C=C/C=C/C=C/C=C/[C@H](O[C@@H]2O[C@H](C)[C@@H](O)[C@H](N)[C@@H]2O)C[C@@H]2O[C@](O)(C[C@@H](O)C[C@H]3O[C@@H]3/C=C/C(=O)O1)C[C@H](O)[C@H]2C(=O)O` [Pimaricin], the mCherry was 112%. Work on `Cc1ccc2nc(N)[nH]c(=O)c2c1Sc1ccncc1` [nolatrexed] yielded a mCherry of 25.7%. `O=C(c1cc(Cc2n[nH]c(=O)c3ccccc23)ccc1F)N1CCN(C(=O)C2CC2)CC1` [Olaparib] gave a mCherry of 98.8%. `NC(=O)CN1C(=O)COc2ccccc21` [paraxazone] was tested, and the mCherry was 94.8%. Compound `CC[C@H](C)C[C@H](C)CCCCCCCCC(=O)N[C@H]1C[C@@H](O)[C@@H](NCCN)NC(=O)[C@@H]2[C@@H](O)CCN2C(=O)[C@H]([C@H](O)CCN)NC(=O)[C@H]([C@H](O)[C@@H](O)c2ccc(O)cc2)NC(=O)[C@@H]2C[C@@H](O)CN2C(=O)[C@H]([C@@H](C)O)NC1=O` [Cancidas] has a mCherry of 109%. In the case of `O=[N+]([O-])c1nccn1CC(O)CN1CCCCC1` (stereo not given) [pimonidazole], the mCherry is reported as 117%. For `CCC[S+]([O-])c1ccc2[nH]c(NC(=O)OC)nc2c1` (stereo not given) [Ricobendazole], the mCherry was 57.8%. Compound `CCC(=O)O[C@]1(C(=O)COC(C)=O)CC[C@H]2[C@@H]3C[C@H](C)C4=CC(=O)C=C[C@]4(C)[C@H]3[C@@H](O)C[C@@]21C` [methylprednisolone aceponate] has a mCherry of 103%. `C[C@H]1c2cccc(O)c2C(O)=C2C(=O)[C@]3(O)C(O)=C(C(N)=O)C(=O)[C@@H](N(C)C)[C@@H]3[C@@H](O)[C@@H]21` [doxycycline] showed a mCherry of 72%. For `CCOC(=O)C1=C(COCCN)NC(C)=C(C(=O)OC)C1c1ccccc1Cl` (stereo not given) [amlodipine], the mCherry was 93.4% and 108%. In the case of `CNC(=O)COc1cc2cc(Nc3nc(N4CCC(C(=O)N(C)C)CC4)ncc3Cl)cc(OC)c2n(C)c1=O`, the mCherry is reported as 108%. Work on `CC1=C(CC(=O)O)c2cc(F)ccc2/C1=C\c1ccc([S+](C)[O-])cc1` (stereo not given) [sulindac] yielded a mCherry of 86.9%. Compound `CCCCCCCCCCCCCCCCCC(=O)OC[C@H](COP(=O)(O)OC[C@H](N)C(=O)O)OC(=O)CCCCCCCCCCCCCCCCC` [Phosphatidylserine] has a mCherry of 84.8%. Work on `C[C@H](CCC(=O)O)[C@H]1CC[C@H]2[C@@H]3C(=O)C[C@@H]4CC(=O)CC[C@]4(C)[C@H]3CC(=O)[C@]12C` [dehydrocholate sodium] yielded a mCherry of 90.4%. With `CO[C@@H]1[C@@H](O[C@@H]2O[C@H](C)[C@@H](O[C@H]3C[C@@](C)(O)[C@@H](OC(=O)CC(C)C)[C@H](C)O3)[C@H](N(C)C)[C@H]2O)[C@@H](CC=O)C[C@@H](C)[C@@H](O)/C=C/C=C/C[C@@H](C)OC(=O)C[C@H]1OC(C)=O` [josamycin] the mCherry was 92.6%. Compound `CC(=O)c1ccc2c(c1)N(CCCN1CCN(CCO)CC1)c1ccccc1S2` has a mCherry of 104%. With `CCC[C@@H]1C[C@@H](C(=O)N[C@@H]([C@H]2O[C@H](SC)[C@H](O)[C@@H](O)[C@H]2O)[C@@H](C)O)N(C)C1` the mCherry was 94.6%. `CC(C)(O/N=C(\C(=O)N[C@@H]1C(=O)N2C(C(=O)[O-])=C(C[n+]3ccccc3)CS[C@H]12)c1csc(N)n1)C(=O)O` was tested, and the mCherry was 84.7%. `C[C@H](C(=O)O)c1ccc(-c2ccccc2)c(F)c1` [esflurbiprofen] gave a mCherry of 65%. With `CC(N)CCCC(C)(C)O` (stereo not given) the mCherry was 105%. For `C[C@]12CC[C@H]3C(=CCc4cc(O)ccc43)[C@@H]1CCC2=O`, the mCherry was 109%. In the case of `Nc1ncnc2c1ncn2[C@@H]1O[C@H](COP(=O)(O)OP(=O)(O)OP(=O)(O)O)[C@@H](O)[C@H]1O` [Adephos], the mCherry is reported as 116%. `Nc1nc(=O)[nH]cc1F` was tested, and the mCherry was 109%. `CCc1c2c(nc3ccc(OC(=O)N4CCC(N5CCCCC5)CC4)cc13)-c1cc3c(c(=O)n1C2)COC(=O)[C@]3(O)CC` gave a mCherry of 117%. Work on `CC(C)(CO)[C@@H](O)C(=O)NCCC(=O)NCCSSCCNC(=O)CCNC(=O)[C@H](O)C(C)(C)CO` yielded a mCherry of 83.1%. In the case of `C[C@](N)(Cc1ccc(O)cc1)C(=O)O` [metirosine], the mCherry is reported as 129%. With `O=[N+]([O-])c1ccc(S(=O)(=O)Nc2nccs2)cc1` [nitrosulfathiazole] the mCherry was 92.4%. `CC(O)Cn1cnc2c1c(=O)n(C)c(=O)n2C` (stereo not given) [proxyphylline] was tested, and the mCherry was 119%. In the case of `CCc1ccc(CCOc2ccc(CC3SC(=O)NC3=O)cc2)nc1` (stereo not given) [Pioglitazone], the mCherry is reported as 106%.
